The list shows a part of the results.
What was measured:
Assay in all cases: log2 fold change, soluble protein after heating vs DMSO (PISA); higher = thermal stabilisation; K562 lysate, 10 uM; active = over 0.2 and 3.5 SD of the protein, either way, in both replicates (recomputed)
[1] = compound: NCC(=O)Nc1ccc(-n2nc(C(F)(F)F)cc2-c2ccc3c(ccc4ccccc43)c2)cc1
Procedure, shortened: (§1)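 Soluble protein was defined as the supernatant remaining after 21,000xg for 90 min, following pooling of heated aliquots and adjustment to 0.5% NP-40 at 4°C. Before that, crude K562 extract at 1 mg/mL protein in PBS pH 7.4 with 1 mM MgCl2 was treated with 10 μM compound for 30 min and heated for 3 min across 48°C-58°C. Quantification used TMTpro 16plex LC-MS/MS with channel sums equalised, and values are log-two fold changes in thermal stability relative to solvent controls from duplicates.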

By UniProt entry, the sequences of proteins in these tests, tags left out. Where a name states a change or a piece, a line headed by the entry shows the natural chain unless it says otherwise.
UniProt Q9BQE9, whole entry, looked up: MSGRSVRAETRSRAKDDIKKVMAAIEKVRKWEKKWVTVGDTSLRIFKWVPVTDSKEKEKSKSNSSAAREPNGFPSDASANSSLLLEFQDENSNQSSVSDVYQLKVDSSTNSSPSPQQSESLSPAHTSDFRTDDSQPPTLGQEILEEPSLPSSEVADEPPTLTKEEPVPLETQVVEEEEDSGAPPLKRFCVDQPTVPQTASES
UniProt P30043: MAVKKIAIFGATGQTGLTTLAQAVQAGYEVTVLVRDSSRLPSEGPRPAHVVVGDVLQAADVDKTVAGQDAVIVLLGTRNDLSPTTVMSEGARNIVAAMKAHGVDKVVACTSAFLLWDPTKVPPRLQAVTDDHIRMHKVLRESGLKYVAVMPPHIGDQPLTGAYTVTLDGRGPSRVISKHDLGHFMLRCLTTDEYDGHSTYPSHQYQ
UniProt Q15059, whole entry, looked up: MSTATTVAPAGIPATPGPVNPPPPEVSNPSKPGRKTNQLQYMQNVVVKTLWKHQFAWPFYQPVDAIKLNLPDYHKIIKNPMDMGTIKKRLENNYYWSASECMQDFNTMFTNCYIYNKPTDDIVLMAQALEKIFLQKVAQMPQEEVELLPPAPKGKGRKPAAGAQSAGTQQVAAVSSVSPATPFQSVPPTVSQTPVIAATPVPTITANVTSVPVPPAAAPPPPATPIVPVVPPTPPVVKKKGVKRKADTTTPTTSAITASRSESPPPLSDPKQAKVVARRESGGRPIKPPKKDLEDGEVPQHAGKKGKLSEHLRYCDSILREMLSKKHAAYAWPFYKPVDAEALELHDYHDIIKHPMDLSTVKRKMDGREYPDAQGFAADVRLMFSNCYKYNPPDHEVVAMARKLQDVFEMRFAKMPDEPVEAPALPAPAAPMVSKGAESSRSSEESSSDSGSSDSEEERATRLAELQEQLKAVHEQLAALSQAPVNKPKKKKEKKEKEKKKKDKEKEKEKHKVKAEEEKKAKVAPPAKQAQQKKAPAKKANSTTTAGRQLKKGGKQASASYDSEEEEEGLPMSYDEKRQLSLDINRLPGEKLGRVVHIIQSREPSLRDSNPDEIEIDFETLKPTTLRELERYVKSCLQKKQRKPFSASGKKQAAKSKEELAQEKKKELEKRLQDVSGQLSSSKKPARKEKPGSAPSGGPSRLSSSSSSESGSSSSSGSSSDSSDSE
UniProt O43521, whole entry, looked up: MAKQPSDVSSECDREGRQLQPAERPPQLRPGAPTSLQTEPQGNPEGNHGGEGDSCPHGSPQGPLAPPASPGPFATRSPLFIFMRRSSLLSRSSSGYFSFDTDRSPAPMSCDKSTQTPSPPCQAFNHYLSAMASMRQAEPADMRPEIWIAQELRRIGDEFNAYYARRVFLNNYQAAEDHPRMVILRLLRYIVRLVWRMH
UniProt Q5PSV4: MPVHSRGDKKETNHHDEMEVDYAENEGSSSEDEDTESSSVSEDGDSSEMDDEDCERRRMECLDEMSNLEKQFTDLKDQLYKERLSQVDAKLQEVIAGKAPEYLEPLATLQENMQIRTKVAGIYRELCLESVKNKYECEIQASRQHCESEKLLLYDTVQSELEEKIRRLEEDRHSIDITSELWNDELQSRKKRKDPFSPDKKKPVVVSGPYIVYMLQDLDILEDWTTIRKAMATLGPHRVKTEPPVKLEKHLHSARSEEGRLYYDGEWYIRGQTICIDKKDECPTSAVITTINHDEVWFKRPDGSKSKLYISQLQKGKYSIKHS
UniProt Q9BXH1: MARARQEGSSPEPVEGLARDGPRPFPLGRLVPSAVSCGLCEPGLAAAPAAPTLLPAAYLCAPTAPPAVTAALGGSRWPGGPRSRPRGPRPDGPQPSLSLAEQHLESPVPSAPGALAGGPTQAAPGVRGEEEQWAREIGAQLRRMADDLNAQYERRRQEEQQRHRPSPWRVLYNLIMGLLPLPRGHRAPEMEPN
UniProt O75531: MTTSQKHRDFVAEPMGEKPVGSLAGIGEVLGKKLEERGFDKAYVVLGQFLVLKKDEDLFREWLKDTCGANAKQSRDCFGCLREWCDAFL
UniProt Q96Q07: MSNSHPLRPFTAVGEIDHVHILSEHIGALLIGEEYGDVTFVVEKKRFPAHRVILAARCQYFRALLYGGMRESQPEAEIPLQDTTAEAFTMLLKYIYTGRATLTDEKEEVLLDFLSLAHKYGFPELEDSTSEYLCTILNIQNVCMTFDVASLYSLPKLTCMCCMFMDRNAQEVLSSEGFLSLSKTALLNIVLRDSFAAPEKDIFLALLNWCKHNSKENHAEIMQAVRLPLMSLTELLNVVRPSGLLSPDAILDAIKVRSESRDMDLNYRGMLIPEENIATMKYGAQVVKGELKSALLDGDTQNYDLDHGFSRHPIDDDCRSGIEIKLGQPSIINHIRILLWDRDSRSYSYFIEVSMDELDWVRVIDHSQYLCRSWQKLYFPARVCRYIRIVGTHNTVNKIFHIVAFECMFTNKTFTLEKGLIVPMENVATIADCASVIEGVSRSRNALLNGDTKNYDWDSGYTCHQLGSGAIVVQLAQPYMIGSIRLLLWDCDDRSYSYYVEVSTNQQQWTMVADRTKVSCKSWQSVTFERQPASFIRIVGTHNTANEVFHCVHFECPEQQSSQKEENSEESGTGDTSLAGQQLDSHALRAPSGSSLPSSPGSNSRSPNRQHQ
UniProt Q92843: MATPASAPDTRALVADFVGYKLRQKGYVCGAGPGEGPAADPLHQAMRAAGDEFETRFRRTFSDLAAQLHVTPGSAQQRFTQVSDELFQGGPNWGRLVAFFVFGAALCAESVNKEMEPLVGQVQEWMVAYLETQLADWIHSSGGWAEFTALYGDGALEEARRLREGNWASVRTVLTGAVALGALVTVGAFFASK
UniProt Q9UQB8: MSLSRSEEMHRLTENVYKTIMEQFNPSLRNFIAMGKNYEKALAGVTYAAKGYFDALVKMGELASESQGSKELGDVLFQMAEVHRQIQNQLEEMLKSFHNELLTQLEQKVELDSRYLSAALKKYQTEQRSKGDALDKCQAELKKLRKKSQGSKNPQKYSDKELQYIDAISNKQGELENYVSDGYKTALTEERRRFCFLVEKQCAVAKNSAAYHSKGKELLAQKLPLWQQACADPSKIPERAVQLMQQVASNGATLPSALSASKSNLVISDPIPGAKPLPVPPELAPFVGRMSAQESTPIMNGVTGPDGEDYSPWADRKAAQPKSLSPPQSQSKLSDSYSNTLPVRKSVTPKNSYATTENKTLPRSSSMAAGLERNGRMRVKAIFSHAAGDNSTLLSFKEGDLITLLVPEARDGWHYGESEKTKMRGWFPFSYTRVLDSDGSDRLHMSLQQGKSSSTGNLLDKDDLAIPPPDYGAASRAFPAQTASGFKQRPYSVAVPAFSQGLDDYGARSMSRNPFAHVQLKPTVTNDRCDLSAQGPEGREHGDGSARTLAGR
UniProt P62324: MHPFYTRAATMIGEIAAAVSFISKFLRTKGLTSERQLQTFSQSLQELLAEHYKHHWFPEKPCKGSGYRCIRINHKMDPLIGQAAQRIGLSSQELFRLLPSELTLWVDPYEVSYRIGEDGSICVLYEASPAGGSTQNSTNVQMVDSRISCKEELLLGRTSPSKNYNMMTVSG
UniProt Q76KP1: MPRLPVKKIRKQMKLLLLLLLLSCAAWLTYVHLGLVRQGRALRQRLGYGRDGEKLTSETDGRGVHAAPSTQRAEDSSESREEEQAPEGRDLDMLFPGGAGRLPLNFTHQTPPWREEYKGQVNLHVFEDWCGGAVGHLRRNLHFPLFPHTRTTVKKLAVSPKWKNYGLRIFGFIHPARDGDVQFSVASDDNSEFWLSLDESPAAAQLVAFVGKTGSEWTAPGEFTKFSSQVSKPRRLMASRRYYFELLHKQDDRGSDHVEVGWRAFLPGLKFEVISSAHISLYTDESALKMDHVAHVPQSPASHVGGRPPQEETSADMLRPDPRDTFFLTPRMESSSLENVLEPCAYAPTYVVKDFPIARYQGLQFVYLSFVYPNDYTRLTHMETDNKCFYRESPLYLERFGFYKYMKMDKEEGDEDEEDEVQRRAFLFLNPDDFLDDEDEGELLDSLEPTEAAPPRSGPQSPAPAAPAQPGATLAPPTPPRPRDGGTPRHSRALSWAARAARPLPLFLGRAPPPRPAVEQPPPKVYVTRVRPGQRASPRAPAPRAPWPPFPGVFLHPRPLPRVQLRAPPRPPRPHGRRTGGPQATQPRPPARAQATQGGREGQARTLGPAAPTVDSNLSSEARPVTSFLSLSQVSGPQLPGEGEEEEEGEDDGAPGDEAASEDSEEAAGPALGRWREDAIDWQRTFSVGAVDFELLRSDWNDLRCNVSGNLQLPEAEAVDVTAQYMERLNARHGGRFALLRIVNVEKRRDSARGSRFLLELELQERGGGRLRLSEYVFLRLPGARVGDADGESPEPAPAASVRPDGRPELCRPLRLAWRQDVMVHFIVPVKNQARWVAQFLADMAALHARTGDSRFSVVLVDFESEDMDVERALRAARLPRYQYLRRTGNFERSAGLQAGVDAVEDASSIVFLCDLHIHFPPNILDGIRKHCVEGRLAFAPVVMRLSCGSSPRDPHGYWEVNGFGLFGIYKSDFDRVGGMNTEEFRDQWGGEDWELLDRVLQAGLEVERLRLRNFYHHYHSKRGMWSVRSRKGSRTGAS
UniProt Q8WY36: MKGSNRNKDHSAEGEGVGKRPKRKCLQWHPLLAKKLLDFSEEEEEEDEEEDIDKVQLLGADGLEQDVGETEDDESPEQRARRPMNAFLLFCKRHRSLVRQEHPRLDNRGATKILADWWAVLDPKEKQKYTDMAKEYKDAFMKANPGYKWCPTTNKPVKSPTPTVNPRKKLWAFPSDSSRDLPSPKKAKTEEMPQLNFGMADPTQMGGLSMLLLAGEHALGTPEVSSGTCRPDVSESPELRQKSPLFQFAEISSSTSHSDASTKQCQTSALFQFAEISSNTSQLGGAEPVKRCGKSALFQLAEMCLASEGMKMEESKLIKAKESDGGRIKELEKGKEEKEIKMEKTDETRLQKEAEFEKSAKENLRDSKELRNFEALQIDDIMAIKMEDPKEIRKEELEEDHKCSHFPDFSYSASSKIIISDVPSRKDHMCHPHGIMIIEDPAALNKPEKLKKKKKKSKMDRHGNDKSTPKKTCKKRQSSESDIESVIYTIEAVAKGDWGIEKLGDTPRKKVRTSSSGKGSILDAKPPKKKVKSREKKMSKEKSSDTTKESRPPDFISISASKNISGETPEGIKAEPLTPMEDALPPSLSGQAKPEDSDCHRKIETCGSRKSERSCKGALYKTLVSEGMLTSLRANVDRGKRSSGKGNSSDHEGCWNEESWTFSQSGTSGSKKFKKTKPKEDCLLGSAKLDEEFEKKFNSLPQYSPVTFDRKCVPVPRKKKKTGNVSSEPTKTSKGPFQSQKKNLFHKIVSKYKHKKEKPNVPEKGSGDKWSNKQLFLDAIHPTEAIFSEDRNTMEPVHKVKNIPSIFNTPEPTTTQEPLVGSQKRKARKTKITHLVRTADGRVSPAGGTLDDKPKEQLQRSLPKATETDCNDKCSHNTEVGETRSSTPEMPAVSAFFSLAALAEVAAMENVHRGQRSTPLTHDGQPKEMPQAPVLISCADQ
UniProt Q9NWD9: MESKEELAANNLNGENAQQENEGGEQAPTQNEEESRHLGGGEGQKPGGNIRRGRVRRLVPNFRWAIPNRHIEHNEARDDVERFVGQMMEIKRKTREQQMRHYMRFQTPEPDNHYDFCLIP
UniProt Q8TBE0: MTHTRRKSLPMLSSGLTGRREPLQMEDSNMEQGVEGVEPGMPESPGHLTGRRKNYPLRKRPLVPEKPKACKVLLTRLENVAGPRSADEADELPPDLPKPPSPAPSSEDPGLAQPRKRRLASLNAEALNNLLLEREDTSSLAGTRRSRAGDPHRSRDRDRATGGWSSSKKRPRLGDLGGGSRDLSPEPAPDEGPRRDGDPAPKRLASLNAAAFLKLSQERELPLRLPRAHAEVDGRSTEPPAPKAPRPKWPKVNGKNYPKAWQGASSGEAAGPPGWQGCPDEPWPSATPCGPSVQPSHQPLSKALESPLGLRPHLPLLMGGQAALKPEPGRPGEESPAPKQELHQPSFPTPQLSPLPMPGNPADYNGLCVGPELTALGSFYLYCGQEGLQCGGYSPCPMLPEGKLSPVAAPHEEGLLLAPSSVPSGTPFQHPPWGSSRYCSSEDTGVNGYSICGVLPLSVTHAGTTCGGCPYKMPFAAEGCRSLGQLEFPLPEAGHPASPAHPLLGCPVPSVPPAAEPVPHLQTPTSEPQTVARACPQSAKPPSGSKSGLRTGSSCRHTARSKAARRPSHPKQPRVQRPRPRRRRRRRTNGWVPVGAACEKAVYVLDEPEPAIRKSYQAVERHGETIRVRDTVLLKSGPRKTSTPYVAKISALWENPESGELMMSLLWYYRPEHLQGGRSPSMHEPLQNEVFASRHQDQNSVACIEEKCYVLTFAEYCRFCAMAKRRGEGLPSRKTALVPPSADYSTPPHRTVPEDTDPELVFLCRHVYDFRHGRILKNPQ

vorinostat = compound: O=C(CCCCCCC(=O)Nc1ccccc1)NO [vorinostat]
Procedure, shortened: as §1

silmitasertib = compound: O=C(O)c1ccc2c(c1)nc(Nc1cccc(Cl)c1)c1ccncc12 [silmitasertib]
Procedure, shortened: as §1

[2] = compound: O=C1NC(=O)C(c2cnc3ccccn23)=C1c1cn2c3c(cc(F)cc13)CN(C(=O)N1CCCCC1)CC2
Procedure, shortened: as §1

entospletinib = compound: c1cn2cc(-c3ccc4cn[nH]c4c3)nc(Nc3ccc(N4CCOCC4)cc3)c2n1 [entospletinib]
Procedure, shortened: as §1

Measured: log2 fold change

BCL7B (UniProt Q9BQE9)
inactive: [1] 0.146 | vorinostat 0.123 | silmitasertib -0.017 | [2] -0.015 | entospletinib 0

BIRC2 (UniProt Q13490)
inactive: [1] -0.009 | vorinostat 0 | silmitasertib 0.001 | [2] -0.019 | entospletinib 0.022

BLVRB (UniProt P30043)
inactive: [1] -0.033 | vorinostat -0.116 | silmitasertib 0.007 | [2] 0.016 | entospletinib 0.041

BCAP29 isoform 2 (UniProt Q9UHQ4)
inactive: [1] -0.029 | vorinostat 0.134 | silmitasertib 0.007 | [2] -0.001 | entospletinib -0.002

BCAS2 (UniProt O75934)
inactive: [1] -0.004 | vorinostat -0.056 | silmitasertib 0.007 | [2] 0.028 | entospletinib -0.127

BRAF, A0A2R8Y8E0
inactive: [1] 0.017 | entospletinib -0.082

BRD3 (UniProt Q15059)
inactive: [1] 0.052 | vorinostat -0.117 | silmitasertib -0.146 | [2] 0.021 | entospletinib -0.018

BPNT1 (UniProt A6NF51)
inactive: [1] 0.026 | vorinostat 0 | silmitasertib 0.094 | entospletinib 0.135

BLOC1S3 (UniProt Q6QNY0)
inactive: [1] 0.045 | vorinostat -0.162 | silmitasertib -0.037 | [2] 0 | entospletinib -0.042

BABAM1 (UniProt Q9NWV8)
inactive: [1] -0.037 | vorinostat -0.194 | silmitasertib -0.025 | [2] -0.024 | entospletinib 0

BCL2L11 (UniProt O43521)
inactive: [1] -0.024 | [2] -0.024

BRMS1L (UniProt Q5PSV4)
inactive: [1] -0.001 | entospletinib -0.102

BCAT1 (UniProt P54687)
inactive: [1] 0.017 | vorinostat 0.116 | silmitasertib -0.009 | [2] 0.006 | entospletinib 0.011

BAP18 isoform 3 (UniProt Q8IXM2)
inactive: [1] -0.04 | vorinostat -0.137 | silmitasertib -0.279 | entospletinib -0.09

BPGM (UniProt P07738)
inactive: [1] -0.079 | vorinostat 0.043 | silmitasertib -0.01 | [2] -0.02 | entospletinib -0.028

BPTF (UniProt F5GXF5)
inactive: vorinostat 0.121 | silmitasertib -0.075

BBC3 (UniProt Q9BXH1)
inactive: [1] -0.098 | vorinostat 0.206 | silmitasertib -0.107 | [2] -0.006 | entospletinib -0.293

BAZ1A (UniProt Q9NRL2)
inactive: [1] 0.143 | vorinostat -0.018 | silmitasertib 0.249 | [2] -0.018 | entospletinib -0.09

BPIFA1 (UniProt Q9NP55)
inactive: [1] 0.067 | vorinostat 0.341 | silmitasertib -0.091 | entospletinib 0.099

B4GALT4 (UniProt O60513)
inactive: vorinostat 0.255 | silmitasertib -0.004

BROX (UniProt Q5VW32)
inactive: [1] 0.017 | vorinostat -0.024 | silmitasertib 0.011 | [2] -0.009 | entospletinib 0.006

BAG2 (UniProt O95816)
inactive: [1] 0.032 | vorinostat 0.042 | silmitasertib 0.023 | [2] -0.023 | entospletinib 0.004

B4GALT7 (UniProt Q9UBV7)
inactive: [1] -0.21 | vorinostat 0.35 | silmitasertib -0.166 | [2] -0.075 | entospletinib 0.04

BLOC1S5 (UniProt Q8TDH9)
inactive: [1] -0.047 | vorinostat 0.083 | silmitasertib -0.02 | [2] -0.009 | entospletinib 0.034

BANF1 (UniProt O75531)
inactive: [1] 0.069 | vorinostat 0.036 | silmitasertib -0.113 | [2] 0.067 | entospletinib -0.051

BAG6 (UniProt F6WML8)
inactive: [1] -0.01 | vorinostat 0.183 | silmitasertib 0.008 | entospletinib -0.024

BIN1 (UniProt O00499)
inactive: [1] 0 | vorinostat 0.441 | silmitasertib 0.121 | entospletinib 0.025

BTBD9 (UniProt Q96Q07)
inactive: vorinostat -0.183 | silmitasertib 0.293

BRI3BP (UniProt Q8WY22)
inactive: [1] -0.029 | vorinostat 0.126 | silmitasertib -0.035 | entospletinib -0.008

BAG6 isoform 3 (UniProt P46379)
inactive: [1] -0.037 | vorinostat 0.089 | silmitasertib 0.036 | [2] 0.051 | entospletinib 0

BCL2L1 (UniProt Q07817)
inactive: [1] -0.025 | vorinostat 0.121 | silmitasertib 0.023 | [2] -0.026 | entospletinib -0.001

BCAP31, A0A2R8Y5M6
inactive: [1] 0.029 | entospletinib -0.038

BRMS1 (UniProt Q9HCU9)
inactive: [1] -0.007 | vorinostat 0.075 | silmitasertib -0.012 | [2] -0.017 | entospletinib -0.026

BTBD1 (UniProt Q9H0C5)
inactive: [1] -0.037 | vorinostat -0.291 | silmitasertib 0.131 | entospletinib -0.122

Random excerpt: two records from the list.
BPTF (UniProt F5GXF5)
inactive: vorinostat 0.121 | silmitasertib -0.075

BPNT1 (UniProt A6NF51)
inactive: [1] 0.026 | vorinostat 0 | silmitasertib 0.094 | entospletinib 0.135

(continued)

BCL2L2 isoform 2 (UniProt Q92843)
inactive: [1] -0.012 | vorinostat 0.043 | silmitasertib 0.006 | [2] -0.018 | entospletinib 0.018

BIN3 (UniProt Q9NQY0)
inactive: vorinostat -0.179 | silmitasertib 0.043 | [2] 0

BDP1 (UniProt A6H8Y1)
inactive: [2] -0.055 | entospletinib -0.133

BRF2 (UniProt Q9HAW0)
inactive: entospletinib -0.103

BNIP2 (UniProt H7C096)
inactive: entospletinib -0.06

BAIAP2 isoform 6 (UniProt Q9UQB8)
inactive: [2] -0.115

BTG1 (UniProt P62324)
inactive: [2] 0.028

B4GALNT4 (UniProt Q76KP1)
inactive: [2] -0.073

BSCL2 isoform 4 (UniProt Q96G97)
inactive: vorinostat 0.01 | silmitasertib -0.12 | [2] 0.056

BBX (UniProt Q8WY36)
inactive: vorinostat -0.257 | silmitasertib 0.241 | [2] 0.046 | entospletinib 0

BAZ2A (UniProt Q9UIF9)
inactive: vorinostat -0.047 | silmitasertib 0.119 | [2] -0.03 | entospletinib -0.099

BRD7 isoform 2 (UniProt Q9NPI1)
inactive: vorinostat 0.018 | silmitasertib 0.034 | [2] 0.104

BRD9 (UniProt Q9H8M2)
inactive: vorinostat 0.026 | silmitasertib 0.01 | entospletinib -0.003

BICRAL (UniProt Q6AI39)
inactive: entospletinib 0.166

BDH2 (UniProt Q9BUT1)
inactive: vorinostat 0.061 | silmitasertib -0.025 | [2] -0.013 | entospletinib 0.057

BPIFB1 (UniProt Q8TDL5)
inactive: entospletinib -0.348

BCL7C (UniProt Q8WUZ0)
inactive: vorinostat 0.061 | silmitasertib 0.081 | [2] 0.036 | entospletinib -0.506

BRWD1 (UniProt Q9NSI6)
inactive: [2] 0.147

BNIP3L (UniProt O60238)
inactive: [2] -0.041 | entospletinib -0.094

BEX4 (UniProt Q9NWD9)
inactive: vorinostat 0.029 | silmitasertib 0.016 | [2] -0.106

BAHD1 (UniProt Q8TBE0)
inactive: [2] 0

BNIP3 (UniProt Q12983)
inactive: vorinostat 0.066 | silmitasertib -0.08 | [2] -0.048 | entospletinib -0.031

BEGAIN, A0A1B0GVM0
inactive: vorinostat 0.354 | silmitasertib -0.011 | [2] 0.017 | entospletinib 0.071

Source: the supplement of paper PMC10849652
